In publication PMC11609211:
Results are given in words; binding and its absence hold for the method and conditions named. In cells and extracts the contact can be indirect. Binding can be weak; no strength is given. Where a sequence is shown, tags or fusion partners need not be part of it.

Target: T1, Flag-tagged NDP52/CALCOCO2 (UniProt Q13137)
T1 sequence: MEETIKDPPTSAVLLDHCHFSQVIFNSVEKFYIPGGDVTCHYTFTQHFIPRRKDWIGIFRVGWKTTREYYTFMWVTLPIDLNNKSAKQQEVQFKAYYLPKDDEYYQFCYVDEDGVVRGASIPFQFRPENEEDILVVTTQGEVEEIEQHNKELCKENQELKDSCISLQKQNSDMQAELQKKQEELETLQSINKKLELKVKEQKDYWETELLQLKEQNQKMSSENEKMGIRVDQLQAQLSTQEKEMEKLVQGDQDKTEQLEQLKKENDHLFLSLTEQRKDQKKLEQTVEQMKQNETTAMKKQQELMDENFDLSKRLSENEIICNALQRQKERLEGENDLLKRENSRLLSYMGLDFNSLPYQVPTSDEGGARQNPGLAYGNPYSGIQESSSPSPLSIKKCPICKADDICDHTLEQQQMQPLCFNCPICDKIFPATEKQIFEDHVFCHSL
Assay: co-IP; HEK-293T cells co-transfected with the tagged plasmids; whole-cell lysate (50 mM Tris-HCl pH 7.4, 150 mM NaCl, 1% NP-40, 10% glycerin, 0.1% SDS, 2 mM Na2EDTA) incubated at 4°C for 4 h with anti-Flag or anti-HA affinity gel; immunoblot

In the case of “HA-tagged PDCoV nucleocapsid (N) protein (porcine deltacoronavirus (PDCoV))”, the binding is reported as “binds”.
